# Assay results

From PubChem BioAssay record AID1159506 (NCATS, 2015).

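Genome-wide siRNA knockdown in TC32 Ewing sarcoma cells, comparing luciferase light from an NR0B1-promoter reporter with a CMV-promoter reporter 48 hours after transfection. Each siRNA was applied at 20 nM. A z-score of the log NR0B1-over-CMV signal, less the median of siRNAs with the same seed; more negative means a stronger specific loss of the NR0B1 reporter.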

This is part of the screen; most of the strongest results are not listed here. Sequences are the guide (antisense) strand, without overhang.

| # | Sequence | target gene | seed-corrected z-score |
|---|---|---|---|
| 1 | `UUAUGUUUACGUGAACAUC` | ZRSR2 | 1.14 |
| 2 | `UAAAUUAGCACUCUUGAGC` | PDCD2L | -0.278 |
| 3 | `UAUUGCAUUCCCAUGUCCC` | MSR1 | 0.001184 |
| 4 | `UAUCCUAUGAGCUAUGCGG` | SMARCA2 | -0.193 |
| 5 | `AACGCGUAAACUUCUUGUC` | KLF14 | -0.2457 |
| 6 | `AGUCUCUCUAGUCUUCUGC` | ABCC5 | -0.9917 |
| 7 | `AAAUCUCUCGAGAAGAGCC` | GLTSCR1 | 0.3825 |
| 8 | `UCCUAAUUCCCUGAUAUAC` | UROS | 0.2467 |
| 9 | `UUGGUUACCGCAGAUGUUG` | C2orf91 | -1.172 |
| 10 | `AAUUUGGAAGAUUCCAGUG` | PMP22 | 0.2169 |
| 11 | `AACUGGAUUUGUAAGAGUC` | DCTN4 | -0.002122 |
| 12 | `UGAACUGUAAGUAGUGCAC` | NAA35 | -0.3473 |
| 13 | `AUACUGUAGUCCACAAAGG` | RNF166 | 0.7583 |
| 14 | `AAAUAGAUCCUUAUUAUCC` | CPNE3 | 0.4964 |
| 15 | `UUUGGGCCUGUUGUAGUCU` | ICAM1 | -0.6471 |
| 16 | `UUGUCUACCUUCUCGGUCA` | BCL2L11 | 0.4235 |
| 17 | `AAAGGAUCUACGCAUAAGC` | SMYD4 | 0.3606 |
| 18 | `UGCGUCAAUAAGGUUAUGG` | LRFN4 | 0.34 |
| 19 | `UCCAUUCCAAUCGCUGUUG` | UGDH | -0.3228 |
| 20 | `UUGGGAUACAUCAAGGCAC` | MMP8 | -0.001473 |
| 21 | `UAUAACUCAAAGAAUAUGC` | RHAG | -0.444 |
| 22 | `UAUUUUAAGACCCUGCUGU` | LOC102724699 | 0.379 |
| 23 | `UGCAUGAAUAGGUACAGUC` | C3orf67 | -0.9666 |
| 24 | `UAAAAUUUUGGUUAAGAGC` | LOC728196 | 0.07259 |
| 25 | `UGGAGCAUGAGGAUCAAUC` | LANCL1 | 1.439 |
| 26 | `UAAGGGUAAAGCGGGUGUC` | PTPRF | 0.3858 |
| 27 | `UUAGUAGCAAUGAAGACUG` | NFE2L2 | -0.446 |
| 28 | `UGCGUAGAUGGAUGAAUCC` | RIMBP3 | -0.8234 |
| 29 | `AACAGGAAGAGUAUGAUGC` | ALOX5AP | -0.007761 |
| 30 | `UAUGGUAAUCCGCUGUCCC` | PREX1 | 0.3537 |
| 31 | `UGGUUUAUCAUAUGUCUCC` | KDF1 | -0.3533 |
| 32 | `UUCGUUUCCAUUGUCUGUC` | FABP2 | 1.829 |
| 33 | `UCUUCUUCAGCCUUCACAC` | RALB | 0.9323 |
| 34 | `AUACCGUUCAUAAUGUAAC` | NSF | 0.5893 |
| 35 | `AGAGUGUUUGAUGUUGUCG` | TEKT5 | -0.8541 |
| 36 | `UCUGGUCUCUGUUCAGAAC` | SERHL2 | 0.05592 |
| 37 | `UUCUCUGCACGAAUCCUCU` | TNNT3 | -0.8356 |
| 38 | `UUCUUCAAGACUUUGAGGC` | TTC9 | -0.198 |
| 39 | `UAUAUCUUAAAUGUCAUCA` | LOC728339 | 0.0173 |
| 40 | `AUGAGUAACAGUAUCAGGC` | ERMARD | -1.023 |
| 41 | `UCACGACAAGUAUCUAUGG` | RNF34 | -0.09111 |
| 42 | `UAAGAGAUUCGUAUCUUUG` | RPL29P12 | 0.9051 |
| 43 | `ACAGAAGUAACUAUUGUUU` | FLJ26245 | 0.3505 |
| 44 | `UUAUCCACCAGGGUCACAU` | SGCA | -1.081 |
| 45 | `UUCUUUCACGUCAUUUGUC` | RPS3AP49 | 0.4173 |
| 46 | `UCAAAGAUAGGGUCCUUGC` | ILDR1 | 0.04432 |
| 47 | `UUCUUAUCACCCAAAAGCC` | FAXC | 0.4474 |
| 48 | `AGUCUCACAAAACUUGUCG` | LRAT | 0.09169 |
| 49 | `UGCCUCUGAACUGUAGUCC` | SOX15 | -0.305 |
| 50 | `UCCAGUAUCCCUACUGUCC` | ENTPD7 | 0.2309 |
| 51 | `UACUCGAACGGUUUGAAGG` | MYBPC2 | 0.08901 |
| 52 | `UCCAGAUCCAUUAUCAGAG` | TMEFF1 | 0.4428 |
| 53 | `UUUACUUUCUCAUAUGGAC` | SPINK14 | -0.04332 |
| 54 | `UUCCUAUUCCUAGCCUUCG` | NAA50 | 0.01259 |
| 55 | `UCAAAGAUAAUCUCCAUGG` | SELK | 0.7083 |
| 56 | `UUGAGUGUCCGAUUUGAGG` | ZNF524 | 0.7116 |
| 57 | `UGUAGCAAACGGGUCAGGG` | MT1X | -0.6169 |
| 58 | `UAUGGUCCCACACUUCUUG` | CPNE9 | 0.2332 |
| 59 | `AAUGCGAAUCUUGAGGCUC` | BRMS1 | 1.222 |
| 60 | `AUUGUUGCUUGCUUGAACG` | VEZT | 0.0758 |

6 of the entries, repeated:

Sequence,target gene,seed-corrected z-score
UGUAGCAAACGGGUCAGGG,MT1X,-0.6169
AGUCUCACAAAACUUGUCG,LRAT,0.09169
UGGUUUAUCAUAUGUCUCC,KDF1,-0.3533
UUGGGAUACAUCAAGGCAC,MMP8,-0.001473
UAUGGUAAUCCGCUGUCCC,PREX1,0.3537
UAAAAUUUUGGUUAAGAGC,LOC728196,0.07259